Measured values as given in publication PMC6081419 (Nature Communications, 2018).
Results are given in words; binding and its absence hold for the method and conditions named. In cells and extracts the contact can be indirect. Where a sequence is shown, tags or fusion partners need not be part of it.

Target: T1, WT hBest1-GFP (human) (UniProt O76090)
T1 sequence: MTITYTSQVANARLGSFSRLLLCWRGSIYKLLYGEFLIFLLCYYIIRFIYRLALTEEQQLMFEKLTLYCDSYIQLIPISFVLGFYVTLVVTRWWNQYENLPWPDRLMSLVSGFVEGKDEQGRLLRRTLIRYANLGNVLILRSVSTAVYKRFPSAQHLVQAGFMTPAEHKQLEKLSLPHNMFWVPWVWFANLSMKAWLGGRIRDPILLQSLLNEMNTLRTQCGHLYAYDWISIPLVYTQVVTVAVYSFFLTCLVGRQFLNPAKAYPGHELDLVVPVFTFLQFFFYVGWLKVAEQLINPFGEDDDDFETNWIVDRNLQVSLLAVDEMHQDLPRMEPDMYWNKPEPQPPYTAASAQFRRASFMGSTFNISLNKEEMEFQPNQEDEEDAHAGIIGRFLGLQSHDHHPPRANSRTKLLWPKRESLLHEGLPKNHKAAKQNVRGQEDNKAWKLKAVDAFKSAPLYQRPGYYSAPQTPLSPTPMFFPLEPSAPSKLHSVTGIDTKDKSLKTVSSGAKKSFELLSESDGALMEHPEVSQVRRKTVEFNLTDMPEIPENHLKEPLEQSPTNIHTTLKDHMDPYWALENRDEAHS
Test: co-IP; lysate of hBest1 P274R iPSC-RPE 48 h after BacMam baculovirus infection; 50 mM Tris-HCl, 150 mM NaCl, 1% NP-40; GFP antibody and protein G beads, 1 h at 4 °C; blot with hBest1 antibody

B1: endogenous hBest1 P274R (protein, UniProt O76090 1-585)
chain: MTITYTSQVANARLGSFSRLLLCWRGSIYKLLYGEFLIFLLCYYIIRFIYRLALTEEQQLMFEKLTLYCDSYIQLIPISFVLGFYVTLVVTRWWNQYENLPWPDRLMSLVSGFVEGKDEQGRLLRRTLIRYANLGNVLILRSVSTAVYKRFPSAQHLVQAGFMTPAEHKQLEKLSLPHNMFWVPWVWFANLSMKAWLGGRIRDPILLQSLLNEMNTLRTQCGHLYAYDWISIPLVYTQVVTVAVYSFFLTCLVGRQFLNPAKAYPGHELDLVVRVFTFLQFFFYVGWLKVAEQLINPFGEDDDDFETNWIVDRNLQVSLLAVDEMHQDLPRMEPDMYWNKPEPQPPYTAASAQFRRASFMGSTFNISLNKEEMEFQPNQEDEEDAHAGIIGRFLGLQSHDHHPPRANSRTKLLWPKRESLLHEGLPKNHKAAKQNVRGQEDNKAWKLKAVDAFKSAPLYQRPGYYSAPQTPLSPTPMFFPLEPSAPSKLHSVTGIDTKDKSLKTVSSGAKKSFELLSESDGALMEHPEVSQVRRKTVEFNLTDMPEIPENHLKEPLEQSPTNIHTTLKDHMDPYWALENRDEAHS
**Q.** For B1, which binding is on record?
**A.** Its binding is “no binding”.
